Source: patent publication US20210395742

The chains behind the UniProt entries cited, without tags or fusion partners. Where a name states a change or a piece, a line headed by the entry shows the natural chain unless it says otherwise. Residues count along the entry.
UniProt P22629: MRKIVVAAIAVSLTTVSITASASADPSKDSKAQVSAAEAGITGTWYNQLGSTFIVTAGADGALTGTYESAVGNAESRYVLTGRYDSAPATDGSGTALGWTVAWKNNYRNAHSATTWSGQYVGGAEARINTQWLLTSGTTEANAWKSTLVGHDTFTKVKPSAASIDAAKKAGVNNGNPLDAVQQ
UniProt P02769, 25-607: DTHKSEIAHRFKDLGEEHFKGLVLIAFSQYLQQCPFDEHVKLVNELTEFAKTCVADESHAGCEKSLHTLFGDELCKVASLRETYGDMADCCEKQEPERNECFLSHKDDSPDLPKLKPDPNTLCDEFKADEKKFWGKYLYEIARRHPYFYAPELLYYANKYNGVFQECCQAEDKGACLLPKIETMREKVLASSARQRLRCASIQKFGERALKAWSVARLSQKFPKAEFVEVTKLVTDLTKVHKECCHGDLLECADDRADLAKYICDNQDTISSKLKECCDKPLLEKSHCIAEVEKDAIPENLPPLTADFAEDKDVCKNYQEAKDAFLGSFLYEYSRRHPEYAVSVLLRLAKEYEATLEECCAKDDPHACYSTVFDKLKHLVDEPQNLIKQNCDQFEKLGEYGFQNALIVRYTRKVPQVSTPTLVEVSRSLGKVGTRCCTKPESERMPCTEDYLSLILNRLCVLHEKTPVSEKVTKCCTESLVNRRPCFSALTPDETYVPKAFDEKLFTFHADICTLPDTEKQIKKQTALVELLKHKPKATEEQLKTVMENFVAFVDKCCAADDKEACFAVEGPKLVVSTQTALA

Columns and labels:
Streptavidin = Streptavidin (UniProt P22629); assay: EMSA; settings: all U = 5-ethynyluridine clicked with sulfo-HSAB (NHS ester), purified recombinant protein, label: annealed IRDye 700 DNA 21-mer; for binding result: random region only [positions count without the 21-nt 5-prime fixed region]
Guinea pig IgG = assay: EMSA; settings: T = 5-ethynyldeoxyuridine clicked with sulfo-HSAB (NHS ester); core of consensus SEQ:22, flanks not given; purified native protein; label: fluorescence detection; single-stranded DNA
Rat IgG = assay: EMSA; settings: T = 5-ethynyldeoxyuridine clicked with sulfo-HSAB (NHS ester); core of consensus SEQ:22, flanks not given; purified native protein; label: fluorescence detection; single-stranded DNA
Rabbit IgG = assay: EMSA; settings: T = 5-ethynyldeoxyuridine clicked with sulfo-HSAB (NHS ester); core of consensus SEQ:22, flanks not given; purified native protein; label: fluorescence detection; single-stranded DNA
[1] = target: Bovine serum albumin (BSA) (Bos taurus) (UniProt P02769); assay: EMSA; settings: T = 5-ethynyldeoxyuridine clicked with sulfo-HSAB (NHS ester); core of consensus SEQ:22, flanks not given; purified native protein; protein details: ThermoFisher Scientific, non-denatured RNase-free; label: fluorescence detection; single-stranded DNA
[2] = target: Bovine serum albumin (BSA) (Bos taurus) (UniProt P02769); assay: competition with a labelled probe; settings: all U = 5-ethynyluridine clicked with sulfo-HSAB (NHS ester); random region only, constant flanks as transcribed from SEQ:6 library [positions count without the 21-nt 5-prime fixed region]; equal band intensities at 8-16 uM BSA vs 10 nM streptavidin, pH 7.2; purified native protein; protein details: ThermoFisher Scientific, non-denatured RNase-free; label: annealed IRDye 700 DNA 21-mer; scale: fold specificity for streptavidin over BSA

Sequence: GGAGAGGGAAGGAGAACGAGCUGGAAACGCAUUAACUAACAAGCUUAAGUGACACAAAGCCCGG [streptavidin clone 8]
- binding result (Streptavidin; covalent complex +): binds

Sequence: GGAGAGGGAAGGAGAACGAGCGGCACGUAUAACUGACAAACGCUUAAGUGACACAAAGCCCGG [streptavidin clone 2]
- binding result (Streptavidin; covalent complex +): binds

Sequence: GGAGAGGGAAGGAGAACGAGCAGGGUAAAAUUUAACUGACAAGCUAAGUGACACAAAGCCCGG [streptavidin clone 3]
- binding result (Streptavidin; no gel shift, differs from clone 7 by a deletion and a C to E change): no binding

Sequence: GGAGAGGGAAGGAGAACGAGCCCGGGUAGCCUUAACUGACGCGCUUAAGUGACACAAAGCCCGG [streptavidin clone 6/10]
- binding result (Streptavidin; covalent complex +, aptamer dimer bands also without protein): binds

Sequence: GGAGAGGGAAGGAGAACGAGCAGGGCAAAAUUUAACUGACAAGCUUAAGUGACACAAAGCCCGG [streptavidin clone 7]
- binding result (Streptavidin; covalent complex +): binds

Sequence: GGAGAGGGAAGGAGAACGAGCAUAACGGCAUUGAGCUUAACUGUAAAAGUGACACAAAGCCCGG [streptavidin clone 9]
- binding result (Streptavidin; covalent complex +): binds

Sequence: GGAGAGGGAAGGAGAACGAGCUAGCACCUAACAUUUCUUGAAAUGAAAGUGACACAAAGCCCGG [streptavidin clone 1]
- binding result (Streptavidin; lacks conserved …): no binding

Sequence: AGCGCGGAACCGTGCCTGGC [Fc clone 1]
- binding result (Guinea pig IgG): no binding
- binding result (Rat IgG): no binding
- binding result (Rabbit IgG): no binding
- binding result [1]: binds more weakly

Sequence: GGAGAGGGAAGGAGAACGAGCGGGACAGCUUAACUGACGAAAACUUAAGUGACACAAAGCCCGG [streptavidin clone 4/5]
- binding signal [2]: 1000
- EC50 (Streptavidin; random region only, constant flanks as transcribed from SEQ:6 library [positions count without the 21-nt 5-prime fixed region], half-maximal covalent complex, denaturing SDS-PAGE gel shift, 1 h, similar plots at pH 6.0-8.0): < 10 nM

For at least one entry, the source does not settle the construct or the ends of the probe. For some of these results: Negatives hold for the conditions tested. For some of these results: Weaker means in comparison with the reference protein, sequence or condition of that experiment. For some of these results: The direction of at least one scale is not stated here.
